Values from PubChem BioAssay AID1259299 (Sanger Institute, 2017).

Purpose: 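Kinases and colorectal mutated genes needed by colorectal cancer cells, with or without drugs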 (primary screen)
Cell system: human CAR1 colorectal cancer cells
Knock-down reagent: siRNA pool against human genes
Treatment: anchor drug BYL719 1 µM, cetuximab 5 µg/ml or trametinib 10 nM, or DMSO vehicle alone; exposure length not given
Read-out: 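Cell viability as fraction of non-targeting siRNA wells, mean of replicates, with robust z-score and a synergy score for each of three drugs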
Reading the numbers: viability robust z-score, knock-down alone and viability, knock-down alone (DMSO): higher = more viable cells; synergy score with BYL719 and synergy score with cetuximab and synergy score with trametinib: higher = stronger synergy with drug (synthetic lethal)
Rule for the call: 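Essential when viability robust z-score with knock-down alone (DMSO) is below -3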
Calls: active = essential (knock-down alone); inactive = no change
The whole screen tested 794 reagents; shown is a random part of them. 9 of them (1.1%) count as active. 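Calls rest on knock-down alone; synergy scores play no part in calls, and no gene passed the synergy cut.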 A number with no mark means an inactive call. Viability is capped at 1. Not stated in the record: the amount of reagent, the time to read-out.

target | viability robust z-score, knock-down alone | viability, knock-down alone (DMSO) (fraction of control) | synergy score with BYL719 | synergy score with cetuximab | synergy score with trametinib
CDK11B (GeneID 984) | 0.789 | 1 | -0.178 | -0.073 | -0.0893
DGKD (GeneID 8527) | 0.572 | 0.98 | -0.222 | -0.0751 | -0.16
TRIO (GeneID 7204) | -1.23 | 0.813 | -0.151 | -0.103 | -0.0835
PGK2 (GeneID 5232) | -1.3 | 0.807 | -0.136 | -0.167 | -0.0354
PKIB (GeneID 5570) | 0.789 | 1 | -0.0659 | 0.0428 | 0.077
AK4 (GeneID 205) | -1.41 | 0.797 | -0.304 | -0.18 | -0.114
HSPB8 (GeneID 26353) | -0.641 | 0.868 | -0.0829 | 0.0116 | 0.0581
ELF3 (GeneID 1999) | -2.27 | 0.718 | -0.0992 | -0.0523 | 0.0139
MAST1 (GeneID 22983) | 0.789 | 1 | -0.206 | -0.0548 | -0.0871
MAP3K3 (GeneID 4215) | 0.174 | 0.943 | -0.0405 | -0.082 | -0.00897
RPS6KA4 (GeneID 8986) | -0.36 | 0.894 | -0.0717 | -0.0982 | -0.128
BLK (GeneID 640) | 0.568 | 0.98 | -0.143 | -0.0726 | -0.0337
IPPK (GeneID 64768) | 0.522 | 0.975 | -0.123 | 0.00967 | 0.00303
PAK3 (GeneID 5063) | 0.203 | 0.946 | -0.116 | 0.0153 | -0.00722
TP53RK (GeneID 112858) | 0.789 | 1 | -0.116 | 0.0069 | 0.0744
STK26 (GeneID 51765) | 0.789 | 1 | -0.122 | -0.073 | 0.00428
LIMK1 (GeneID 3984) | -0.151 | 0.913 | -0.192 | -0.131 | -0.216
WIPF1 (GeneID 7456) | -1.33 | 0.805 | -0.112 | -0.0907 | -0.0473
TK2 (GeneID 7084) | 0.439 | 0.968 | -0.11 | -0.103 | -0.0273
FXN (GeneID 2395) | 0.789 | 1 | -0.168 | -0.0577 | -0.176
MAP3K13 (GeneID 9175) | 0.789 | 1 | -0.0711 | -0.073 | -0.126
WHR1 (GeneID 8859) | 0.789 | 1 | -0.161 | -0.0338 | -0.0458
CHEK1 (GeneID 1111) | -1.39 | 0.799 | -0.0994 | -0.0802 | -0.0819
GUK1 (GeneID 2987) | 0.789 | 1 | -0.0454 | -0.073 | -0.0258
FGFR1 (GeneID 2260) | -0.553 | 0.876 | -0.176 | -0.0872 | -0.00924
MAPK6 (GeneID 5597) | 0.789 | 1 | -0.0669 | -0.0476 | -0.141
PRKACG (GeneID 5568) | 0.32 | 0.957 | -0.203 | -0.113 | -0.0445
RIOK1 (GeneID 83732) | -0.0667 | 0.921 | -0.205 | -0.146 | -0.0895
CDKN1B (GeneID 1027) | 0.789 | 1 | -0.119 | -0.0692 | -0.0752
KCNH2 (GeneID 3757) | -2.64 | 0.683 | -0.275 | -0.221 | -0.122
GALK1 (GeneID 2584) | -2.5 | 0.696 | -0.061 | -0.0837 | -0.0893
CDK15 (GeneID 65061) | 0.789 | 1 | -0.206 | -0.0264 | 0.0154
PCK1 (GeneID 5105) | 0.789 | 1 | 0.0952 | 0.0982 | -0.0448
MAPK13 (GeneID 5603) | 0.789 | 1 | -0.206 | -0.00321 | 0.0117
TAB1 (GeneID 10454) | 0.789 | 1 | -0.132 | -0.064 | -0.0297
CAMKV (GeneID 79012) | 0.309 | 0.956 | -0.1 | 0 | -0.14
PDK4 (GeneID 5166) | 0.789 | 1 | -0.141 | 0.0751 | -0.0552
PLK1 (GeneID 5347) | -2.97 | 0.653 | 0.0485 | 0.0884 | -0.114
CSNK1G1 (GeneID 53944) | 0.408 | 0.965 | -0.103 | -0.0399 | -0.23
CAMK2G (GeneID 818) | -1.61 | 0.778 | -0.18 | -0.197 | -0.149
PDGFRA (GeneID 5156) | -0.0149 | 0.926 | -0.0637 | -0.121 | 0.0446
GUCY2C (GeneID 2984) | 0.611 | 0.984 | -0.131 | -0.0883 | -0.187
PTPN11 (GeneID 5781) | 0.789 | 1 | -0.105 | 0.0239 | -0.119
SIK3 (GeneID 23387) | 0.789 | 1 | -0.163 | -0.073 | -0.221
FER (GeneID 2241) | 0.321 | 0.957 | -0.24 | -0.0391 | -0.254
CDKN1A (GeneID 1026) | 0.789 | 1 | -0.156 | -0.073 | -0.11
MED24 (GeneID 9862) | 0.789 | 1 | -0.158 | -0.073 | -0.221
STK17B (GeneID 9262) | 0.0533 | 0.932 | -0.166 | -0.106 | -0.061
PPP2R1A (GeneID 5518) | 0.789 | 1 | -0.206 | -0.073 | -0.175
ITPKB (GeneID 3707) | 0.789 | 1 | -0.206 | -0.073 | -0.0909
GRK2 (GeneID 156) | -2.62 | 0.685 | -0.0692 | -0.0731 | 0.0509
TAF1 (GeneID 6872) | -0.311 | 0.898 | -0.0993 | -0.0683 | -0.112
ALPK3 (GeneID 57538) | 0.755 | 0.997 | -0.173 | -0.076 | -0.224
TAF1L (GeneID 138474) | -1.07 | 0.828 | -0.0996 | -0.123 | -0.12
ATM (GeneID 472) | 0.551 | 0.978 | -0.019 | 0.0126 | -0.0515
MSR1 (GeneID 4481) | -1.07 | 0.828 | -0.208 | -0.14 | -0.133
KMT2B (GeneID 9757) | 0.168 | 0.943 | -0.223 | -0.0507 | -0.146
KALRN (GeneID 8997) | 0.551 | 0.978 | -0.173 | -0.0934 | -0.0698
PRKCB (GeneID 5579) | -0.049 | 0.923 | -0.156 | 0.0356 | -0.155
VRK2 (GeneID 7444) | -1.88 | 0.754 | -0.147 | -0.179 | -0.148
LCK (GeneID 3932) | -0.161 | 0.912 | -0.15 | -0.154 | -0.147
HIPK4 (GeneID 147746) | 0.789 | 1 | -0.206 | -0.073 | -0.127
SF3B1 (GeneID 23451) | -1.98 | 0.744 | -0.119 | -0.00364 | -0.0729

6 of these entries, reformatted.
| target | viability robust z-score, knock-down alone | viability, knock-down alone (DMSO) (fraction of control) | synergy score with BYL719 | synergy score with cetuximab | synergy score with trametinib |
| --- | --- | --- | --- | --- | --- |
| PPP2R1A (GeneID 5518) | 0.789 | 1 | -0.206 | -0.073 | -0.175 |
| ITPKB (GeneID 3707) | 0.789 | 1 | -0.206 | -0.073 | -0.0909 |
| GRK2 (GeneID 156) | -2.62 | 0.685 | -0.0692 | -0.0731 | 0.0509 |
| TAF1 (GeneID 6872) | -0.311 | 0.898 | -0.0993 | -0.0683 | -0.112 |
| ALPK3 (GeneID 57538) | 0.755 | 0.997 | -0.173 | -0.076 | -0.224 |
| TAF1L (GeneID 138474) | -1.07 | 0.828 | -0.0996 | -0.123 | -0.12 |
